Assay results as given in the supplement of paper PMC10849652.
This is one part of the list.

The chains behind the UniProt entries cited, without tags or fusion partners. Where a name states a change or a piece, a line headed by the entry shows the natural chain unless it says otherwise.
UniProt Q99961: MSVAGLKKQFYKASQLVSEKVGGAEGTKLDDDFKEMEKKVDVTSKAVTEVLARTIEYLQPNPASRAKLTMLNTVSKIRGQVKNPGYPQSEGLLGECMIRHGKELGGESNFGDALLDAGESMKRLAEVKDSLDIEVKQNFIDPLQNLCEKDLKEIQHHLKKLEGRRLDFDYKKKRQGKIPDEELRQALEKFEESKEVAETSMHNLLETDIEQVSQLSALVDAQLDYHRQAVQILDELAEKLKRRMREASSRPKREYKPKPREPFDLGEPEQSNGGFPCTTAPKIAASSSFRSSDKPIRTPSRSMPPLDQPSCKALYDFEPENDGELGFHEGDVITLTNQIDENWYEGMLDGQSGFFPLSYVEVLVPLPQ
UniProt Q01105, whole entry, looked up: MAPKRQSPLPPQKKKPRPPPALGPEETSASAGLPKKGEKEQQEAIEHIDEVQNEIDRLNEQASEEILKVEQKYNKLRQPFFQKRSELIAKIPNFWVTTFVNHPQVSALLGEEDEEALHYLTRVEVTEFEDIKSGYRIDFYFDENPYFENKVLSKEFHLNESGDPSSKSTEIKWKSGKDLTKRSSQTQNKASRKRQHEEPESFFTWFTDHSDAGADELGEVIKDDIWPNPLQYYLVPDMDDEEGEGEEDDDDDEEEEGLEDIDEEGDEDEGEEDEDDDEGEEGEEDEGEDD
UniProt Q9H9B4: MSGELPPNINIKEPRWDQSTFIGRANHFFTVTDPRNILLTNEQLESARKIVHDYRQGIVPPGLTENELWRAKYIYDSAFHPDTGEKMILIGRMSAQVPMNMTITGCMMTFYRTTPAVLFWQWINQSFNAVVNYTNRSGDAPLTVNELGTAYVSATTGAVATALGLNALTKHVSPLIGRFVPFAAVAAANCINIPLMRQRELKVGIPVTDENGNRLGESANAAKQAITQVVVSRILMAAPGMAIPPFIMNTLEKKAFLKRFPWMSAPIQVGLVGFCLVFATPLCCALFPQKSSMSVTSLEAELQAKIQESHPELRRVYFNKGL
UniProt Q9NR46: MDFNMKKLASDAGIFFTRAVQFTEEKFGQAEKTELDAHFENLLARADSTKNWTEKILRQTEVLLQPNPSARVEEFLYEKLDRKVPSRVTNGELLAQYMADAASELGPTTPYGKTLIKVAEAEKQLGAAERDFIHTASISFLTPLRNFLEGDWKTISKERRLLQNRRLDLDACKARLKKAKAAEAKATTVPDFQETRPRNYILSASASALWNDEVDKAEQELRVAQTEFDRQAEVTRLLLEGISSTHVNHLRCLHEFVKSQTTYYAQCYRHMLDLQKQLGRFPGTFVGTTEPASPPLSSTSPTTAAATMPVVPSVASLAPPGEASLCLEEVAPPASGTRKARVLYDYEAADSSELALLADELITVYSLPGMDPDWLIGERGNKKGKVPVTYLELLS
UniProt Q8WUM9: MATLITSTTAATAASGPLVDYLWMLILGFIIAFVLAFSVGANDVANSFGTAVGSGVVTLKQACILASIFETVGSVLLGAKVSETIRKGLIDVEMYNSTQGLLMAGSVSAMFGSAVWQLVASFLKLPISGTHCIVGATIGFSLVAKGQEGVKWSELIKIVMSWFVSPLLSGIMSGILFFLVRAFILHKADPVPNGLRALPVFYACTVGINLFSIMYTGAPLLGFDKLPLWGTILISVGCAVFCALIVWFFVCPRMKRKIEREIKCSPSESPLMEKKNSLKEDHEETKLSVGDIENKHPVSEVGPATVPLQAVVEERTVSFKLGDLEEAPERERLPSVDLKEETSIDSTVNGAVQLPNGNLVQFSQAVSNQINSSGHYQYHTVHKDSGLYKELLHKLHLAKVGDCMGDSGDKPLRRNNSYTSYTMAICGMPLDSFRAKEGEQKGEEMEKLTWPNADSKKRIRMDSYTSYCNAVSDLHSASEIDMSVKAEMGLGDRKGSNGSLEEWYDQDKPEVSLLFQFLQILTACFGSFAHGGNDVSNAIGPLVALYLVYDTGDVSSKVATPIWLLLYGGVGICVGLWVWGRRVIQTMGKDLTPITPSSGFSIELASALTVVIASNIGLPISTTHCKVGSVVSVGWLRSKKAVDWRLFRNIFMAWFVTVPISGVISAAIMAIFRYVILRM
UniProt Q13435: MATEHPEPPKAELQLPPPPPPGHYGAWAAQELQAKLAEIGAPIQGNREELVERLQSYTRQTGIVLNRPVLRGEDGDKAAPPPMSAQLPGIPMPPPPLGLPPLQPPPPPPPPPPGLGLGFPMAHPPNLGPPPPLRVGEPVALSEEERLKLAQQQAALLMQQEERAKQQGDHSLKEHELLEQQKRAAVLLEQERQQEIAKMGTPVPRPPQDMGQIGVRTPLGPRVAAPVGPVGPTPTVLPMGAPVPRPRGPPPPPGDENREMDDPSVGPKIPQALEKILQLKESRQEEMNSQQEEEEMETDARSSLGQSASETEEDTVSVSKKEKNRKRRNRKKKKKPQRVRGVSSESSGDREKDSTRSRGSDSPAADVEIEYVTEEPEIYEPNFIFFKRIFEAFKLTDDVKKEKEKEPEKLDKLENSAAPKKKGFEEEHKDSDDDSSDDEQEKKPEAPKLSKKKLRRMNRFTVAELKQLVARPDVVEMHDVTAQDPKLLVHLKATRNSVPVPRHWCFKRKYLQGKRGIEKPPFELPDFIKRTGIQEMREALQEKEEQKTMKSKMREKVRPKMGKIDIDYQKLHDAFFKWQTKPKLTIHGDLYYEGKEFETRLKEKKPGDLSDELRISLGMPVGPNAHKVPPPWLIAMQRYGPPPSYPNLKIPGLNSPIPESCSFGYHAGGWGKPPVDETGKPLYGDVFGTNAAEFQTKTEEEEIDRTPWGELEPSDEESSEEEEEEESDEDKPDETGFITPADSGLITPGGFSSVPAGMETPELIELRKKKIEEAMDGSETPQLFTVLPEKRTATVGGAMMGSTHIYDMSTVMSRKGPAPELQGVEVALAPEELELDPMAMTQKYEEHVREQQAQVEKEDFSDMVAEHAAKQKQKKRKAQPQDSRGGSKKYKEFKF
UniProt O60239: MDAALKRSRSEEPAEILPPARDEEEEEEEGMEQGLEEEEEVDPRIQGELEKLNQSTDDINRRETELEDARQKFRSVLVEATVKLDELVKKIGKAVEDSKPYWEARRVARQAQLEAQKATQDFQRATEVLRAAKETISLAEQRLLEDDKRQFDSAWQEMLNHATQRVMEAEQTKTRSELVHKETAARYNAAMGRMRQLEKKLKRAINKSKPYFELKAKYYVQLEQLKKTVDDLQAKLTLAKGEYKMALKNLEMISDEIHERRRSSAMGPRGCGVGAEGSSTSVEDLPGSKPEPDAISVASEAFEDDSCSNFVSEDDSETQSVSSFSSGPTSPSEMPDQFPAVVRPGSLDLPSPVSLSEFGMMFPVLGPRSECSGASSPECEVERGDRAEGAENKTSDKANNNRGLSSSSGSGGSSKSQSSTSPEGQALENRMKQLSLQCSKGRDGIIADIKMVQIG
UniProt Q96BD8: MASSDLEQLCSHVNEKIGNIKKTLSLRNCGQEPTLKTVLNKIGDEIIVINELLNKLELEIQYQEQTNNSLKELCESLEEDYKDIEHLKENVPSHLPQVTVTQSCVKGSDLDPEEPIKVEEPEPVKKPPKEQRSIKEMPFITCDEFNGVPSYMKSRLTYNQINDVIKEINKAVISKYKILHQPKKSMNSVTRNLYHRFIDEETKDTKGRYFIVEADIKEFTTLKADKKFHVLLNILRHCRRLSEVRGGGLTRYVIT
UniProt Q9BWJ5: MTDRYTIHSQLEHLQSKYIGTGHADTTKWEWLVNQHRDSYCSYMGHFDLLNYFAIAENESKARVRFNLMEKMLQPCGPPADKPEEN
UniProt O75563, whole entry, looked up: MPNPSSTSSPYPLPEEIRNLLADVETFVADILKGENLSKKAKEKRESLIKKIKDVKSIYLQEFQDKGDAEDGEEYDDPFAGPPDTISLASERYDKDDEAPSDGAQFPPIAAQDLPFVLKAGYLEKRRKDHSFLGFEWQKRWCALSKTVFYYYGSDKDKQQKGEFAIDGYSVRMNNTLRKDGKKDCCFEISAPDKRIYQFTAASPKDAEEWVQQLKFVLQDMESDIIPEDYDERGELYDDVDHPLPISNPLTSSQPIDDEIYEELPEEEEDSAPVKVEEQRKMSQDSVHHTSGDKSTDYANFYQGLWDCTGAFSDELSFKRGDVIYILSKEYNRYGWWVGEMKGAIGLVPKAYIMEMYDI
UniProt Q15758: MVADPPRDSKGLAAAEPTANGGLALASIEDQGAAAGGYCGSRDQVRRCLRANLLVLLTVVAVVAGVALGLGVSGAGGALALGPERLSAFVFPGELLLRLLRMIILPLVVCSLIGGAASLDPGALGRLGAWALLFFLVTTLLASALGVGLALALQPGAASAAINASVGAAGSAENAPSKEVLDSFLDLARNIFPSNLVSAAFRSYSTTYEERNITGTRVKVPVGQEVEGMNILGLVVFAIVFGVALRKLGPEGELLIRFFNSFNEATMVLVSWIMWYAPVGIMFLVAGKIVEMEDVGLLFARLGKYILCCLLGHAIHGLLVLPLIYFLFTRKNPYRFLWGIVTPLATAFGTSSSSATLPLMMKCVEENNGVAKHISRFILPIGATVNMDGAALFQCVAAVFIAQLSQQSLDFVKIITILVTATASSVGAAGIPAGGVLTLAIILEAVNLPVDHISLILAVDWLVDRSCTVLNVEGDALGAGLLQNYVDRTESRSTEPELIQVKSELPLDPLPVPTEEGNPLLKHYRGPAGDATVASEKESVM
UniProt P01008, whole entry, looked up: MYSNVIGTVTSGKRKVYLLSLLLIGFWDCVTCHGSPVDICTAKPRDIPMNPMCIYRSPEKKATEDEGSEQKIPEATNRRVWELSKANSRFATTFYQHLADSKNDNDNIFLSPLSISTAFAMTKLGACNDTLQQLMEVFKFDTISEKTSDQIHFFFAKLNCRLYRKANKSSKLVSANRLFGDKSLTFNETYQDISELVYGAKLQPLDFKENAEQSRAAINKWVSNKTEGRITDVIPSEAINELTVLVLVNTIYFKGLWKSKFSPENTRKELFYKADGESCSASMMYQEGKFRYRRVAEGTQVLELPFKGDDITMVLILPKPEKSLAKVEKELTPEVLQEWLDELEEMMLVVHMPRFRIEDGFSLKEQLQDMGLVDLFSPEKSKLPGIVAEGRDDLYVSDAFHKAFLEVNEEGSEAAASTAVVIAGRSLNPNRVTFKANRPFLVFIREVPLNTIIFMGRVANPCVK
UniProt P31947: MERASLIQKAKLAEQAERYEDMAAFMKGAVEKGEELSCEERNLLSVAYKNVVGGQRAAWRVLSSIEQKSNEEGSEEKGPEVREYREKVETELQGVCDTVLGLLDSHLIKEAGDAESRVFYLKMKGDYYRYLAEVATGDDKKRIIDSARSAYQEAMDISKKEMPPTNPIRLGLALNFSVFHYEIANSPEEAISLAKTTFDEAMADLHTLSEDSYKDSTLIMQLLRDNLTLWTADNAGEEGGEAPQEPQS
UniProt Q15393: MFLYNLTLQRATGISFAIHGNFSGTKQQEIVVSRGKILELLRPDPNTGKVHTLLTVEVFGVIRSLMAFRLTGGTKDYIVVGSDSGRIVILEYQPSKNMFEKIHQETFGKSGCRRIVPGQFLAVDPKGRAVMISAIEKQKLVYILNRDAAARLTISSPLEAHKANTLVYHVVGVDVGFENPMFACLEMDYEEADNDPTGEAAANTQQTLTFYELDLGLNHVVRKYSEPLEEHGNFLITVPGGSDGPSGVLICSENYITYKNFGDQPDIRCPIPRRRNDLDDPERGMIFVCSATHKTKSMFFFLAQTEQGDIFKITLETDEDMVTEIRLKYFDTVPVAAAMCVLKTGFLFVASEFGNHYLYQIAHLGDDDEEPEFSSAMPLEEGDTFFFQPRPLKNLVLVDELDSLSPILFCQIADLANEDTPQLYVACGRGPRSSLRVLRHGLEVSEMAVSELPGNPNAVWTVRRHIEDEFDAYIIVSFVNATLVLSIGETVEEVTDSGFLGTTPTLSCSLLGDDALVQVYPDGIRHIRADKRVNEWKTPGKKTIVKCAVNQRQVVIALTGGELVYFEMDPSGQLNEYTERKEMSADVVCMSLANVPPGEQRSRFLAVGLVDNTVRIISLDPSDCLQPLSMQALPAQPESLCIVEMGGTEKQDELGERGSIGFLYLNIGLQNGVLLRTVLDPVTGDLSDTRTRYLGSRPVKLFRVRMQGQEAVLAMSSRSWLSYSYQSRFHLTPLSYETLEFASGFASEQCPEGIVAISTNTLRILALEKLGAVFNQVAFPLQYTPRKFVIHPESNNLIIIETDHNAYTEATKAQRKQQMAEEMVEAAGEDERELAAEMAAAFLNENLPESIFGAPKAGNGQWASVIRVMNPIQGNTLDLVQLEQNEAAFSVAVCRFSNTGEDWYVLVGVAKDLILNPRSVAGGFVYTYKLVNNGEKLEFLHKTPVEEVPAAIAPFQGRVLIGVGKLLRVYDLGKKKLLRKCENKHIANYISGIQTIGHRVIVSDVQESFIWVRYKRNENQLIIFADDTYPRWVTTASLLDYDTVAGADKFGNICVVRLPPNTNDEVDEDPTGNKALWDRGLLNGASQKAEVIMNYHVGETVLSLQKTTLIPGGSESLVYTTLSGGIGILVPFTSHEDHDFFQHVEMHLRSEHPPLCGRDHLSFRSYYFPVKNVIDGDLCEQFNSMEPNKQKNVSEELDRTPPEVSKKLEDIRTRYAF

Experiments:
Assay in all cases: log2 fold change, soluble protein after heating vs DMSO (PISA); higher = thermal stabilisation; K562 lysate, 10 uM; active = over 0.2 and 3.5 SD of the protein, either way, in both replicates (recomputed)
alvocidib = compound: CN1CC[C@H](c2c(O)cc(O)c3c(=O)cc(-c4ccccc4Cl)oc23)[C@H](O)C1 [alvocidib]
Method in brief: (§1)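 Dounce homogenisation of K562 pellets in PBS pH 7.4 with 1 mM MgCl2 produced a crude extract, used at 1 mg/mL protein. Exposure to 10 μM compound lasted 30 min, and aliquots were then heated for 3 min across 48°C-58°C, pooled and brought to 0.5% NP-40 at 4°C. The supernatant after 21,000xg for 90 min was quantified by TMTpro 16plex LC-MS/MS with channel sums equalised. Duplicate values are given as log-two fold change in thermal stability relative to solvent controls.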

Tubastatin A = compound: CN1CCc2c(c3ccccc3n2Cc2ccc(C(=O)NO)cc2)C1 [Tubastatin A]
Method in brief: as §1

[1] = compound: CNC(=O)C1=CC=CC=C1NC2=NC(=NC=C2Cl)NC3=C(C=C(C=C3)N4CCOCC4)OC
Method in brief: as §1

defactinib = compound: CNC(=O)c1ccc(Nc2ncc(C(F)(F)F)c(NCc3nccnc3N(C)S(C)(=O)=O)n2)cc1 [defactinib]
Method in brief: as §1

[2] = compound: CNc1nc(-c2ccc3c(N)n[nH]c3c2)cc(N2C[C@@H](C(=O)NC3CCCCC3)CC[C@H]2C)n1
Method in brief: as §1

encorafenib = compound: COC(=O)N[C@@H](C)CNc1nccc(-c2cn(C(C)C)nc2-c2cc(Cl)cc(NS(C)(=O)=O)c2F)n1 [encorafenib]
Method in brief: as §1

[3] = compound: COC(=O)[C@H](CCSC)NC(=O)C1=C(C=C(C=C1)NC[C@H](CS)N)C2=CC=CC=C2
Method in brief: as §1

alisertib = compound: COc1cc(Nc2ncc3c(n2)-c2ccc(Cl)cc2C(c2c(F)cccc2OC)=NC3)ccc1C(=O)O [alisertib]
Method in brief: as §1

[4] = compound: COc1cc2nc(-c3cc(F)ccc3O)nc(N[C@@H]3CNC[C@H]3C(C)(C)O)c2cc1OC
Method in brief: as §1

gefitinib = compound: COc1cc2ncnc(Nc3ccc(F)c(Cl)c3)c2cc1OCCCN1CCOCC1 [gefitinib]
Method in brief: as §1

Measured: log2 fold change

SH3GL1 (UniProt Q99961)
inactive: alvocidib 0.017 | Tubastatin A -0.109 | [1] 0.01 | defactinib 0.03 | [2] -0.003 | encorafenib -0.02 | [3] -0.042 | alisertib -0.011 | [4] 0.009 | gefitinib 0.002

SET isoform 2 (UniProt Q01105)
inactive: alvocidib 0.022 | Tubastatin A 0.06 | [1] -0.021 | defactinib -0.002 | [2] 0.04 | encorafenib -0.027 | [3] -0.018 | alisertib -0.016 | [4] 0.02 | gefitinib -0.011

SFXN1 (UniProt Q9H9B4)
inactive: alvocidib 0 | Tubastatin A -0.001 | [1] -0.006 | defactinib 0.002 | [2] -0.021 | encorafenib 0.01 | [3] -0.01 | alisertib -0.005 | [4] -0.085 | gefitinib 0.004

SETD2 (UniProt Q9BYW2)
inactive: alvocidib -0.031 | Tubastatin A 0.014 | [1] -0.052 | defactinib -0.088 | [2] 0.018 | encorafenib 0.003 | [3] 0.032 | alisertib 0.043 | [4] 0.05 | gefitinib -0.112

SHKBP1 (UniProt Q8TBC3)
inactive: alvocidib -0.038 | Tubastatin A -0.018 | [1] -0.002 | defactinib 0.115 | [2] 0.046 | encorafenib -0.05 | alisertib 0.019 | [4] 0.001 | gefitinib 0.023
active: [3] 0.274

SLC10A7 isoform 1 (UniProt Q0GE19)
inactive: alvocidib -0.041 | Tubastatin A 0.146 | [1] 0.001 | defactinib 0.158 | [2] 0.037 | encorafenib 0.107 | [3] 0.044 | alisertib 0.039 | [4] -0.052 | gefitinib 0.032

SH3GLB2 (UniProt Q9NR46)
inactive: alvocidib -0.008 | Tubastatin A -0.112 | [1] 0.01 | defactinib 0.017 | [2] -0.059 | encorafenib 0.038 | [3] -0.066 | alisertib 0.032 | [4] -0.039 | gefitinib 0.008

SLC20A1 (UniProt Q8WUM9)
inactive: alvocidib 0.002 | Tubastatin A 0.054 | [1] -0.012 | defactinib -0.155 | [2] 0.016 | encorafenib -0.039 | [3] -0.057 | alisertib -0.026 | [4] 0.036 | gefitinib 0.05

SF3B2 (UniProt Q13435)
inactive: alvocidib -0.027 | Tubastatin A 0.001 | [1] -0.025 | defactinib -0.041 | [2] 0.007 | encorafenib 0.009 | [3] 0.02 | alisertib 0.023 | [4] 0.005 | gefitinib -0.008

SFXN2 (UniProt Q96NB2)
inactive: alvocidib -0.037 | Tubastatin A 0.006 | [1] 0.027 | defactinib 0.055 | [2] 0.006 | encorafenib -0.001 | [3] -0.004 | alisertib 0.055 | [4] -0.028 | gefitinib 0.005

SERGEF (UniProt Q9UGK8)
inactive: alvocidib 0.009 | Tubastatin A -0.008 | [1] 0.065 | defactinib -0.01 | [2] 0.05 | encorafenib -0.011 | [3] 0.015 | alisertib -0.054 | [4] 0.015 | gefitinib 0.034

SF3B6 (UniProt Q9Y3B4)
inactive: alvocidib 0.05 | Tubastatin A -0.037 | [1] 0.016 | defactinib 0.017 | [2] 0.071 | encorafenib 0.014 | [3] -0.003 | alisertib -0.011 | [4] -0.027 | gefitinib -0.172

SH3BP5 (UniProt O60239)
inactive: alvocidib 0.033 | Tubastatin A 0.04 | [1] 0.044 | defactinib -0.026 | [2] 0.019 | encorafenib 0.06 | [3] -0.093 | alisertib -0.041 | [4] 0.051 | gefitinib 0.134

SKA1 (UniProt Q96BD8)
inactive: alvocidib -0.046 | Tubastatin A -0.064 | [1] 0.001 | defactinib 0.015 | [2] -0.008 | encorafenib 0.129 | [3] -0.055 | alisertib -0.017 | [4] 0.017 | gefitinib -0.006

SH3GLB1 isoform 2 (UniProt Q9Y371)
inactive: alvocidib -0.034 | Tubastatin A -0.132 | [1] -0.018 | defactinib 0.004 | [2] -0.109 | encorafenib 0.078 | [3] 0.065 | alisertib -0.009 | [4] -0.025 | gefitinib 0.04

SHTN1 (UniProt A0MZ66)
inactive: alvocidib -0.022 | Tubastatin A 0.039 | [1] 0.001 | defactinib -0.008 | [2] 0.028 | encorafenib 0.006 | [3] -0.011 | alisertib -0.017 | [4] 0.012 | gefitinib -0.016

SLC12A4 (UniProt Q9UP95)
inactive: alvocidib 0.035 | Tubastatin A -0.001 | [1] 0.155 | defactinib -0.023 | [2] -0.073 | encorafenib 0.012 | [3] 0.038 | alisertib -0.01 | [4] -0.002 | gefitinib 0.063

SGPL1 (UniProt O95470)
inactive: alvocidib -0.012 | Tubastatin A 0.01 | [1] 0.009 | defactinib 0.035 | [2] 0.09 | encorafenib 0.025 | [3] 0.062 | alisertib -0.078 | [4] -0.155 | gefitinib -0.027

SESN2 (UniProt P58004)
inactive: alvocidib 0.028 | Tubastatin A -0.093 | [1] -0.028 | defactinib 0.039 | [2] 0.033 | encorafenib 0.038 | [3] -0.001 | alisertib -0.026 | [4] -0.045 | gefitinib -0.034

SIDT2 isoform 2 (UniProt Q8NBJ9)
inactive: alvocidib 0 | Tubastatin A 0.058 | [1] 0.046 | defactinib -0.082 | [2] -0.008 | encorafenib 0.027 | [3] -0.059 | alisertib -0.303 | [4] -0.019 | gefitinib -0.234

SKA3 (UniProt Q8IX90)
inactive: alvocidib -0.035 | Tubastatin A -0.056 | [1] 0.03 | defactinib 0.035 | [2] 0.04 | encorafenib 0.023 | [3] -0.051 | alisertib 0.039 | [4] -0.012 | gefitinib 0.063

SF3B5 (UniProt Q9BWJ5)
inactive: alvocidib 0.161 | Tubastatin A -0.015 | [1] 0.02 | defactinib 0.082 | [2] 0.024 | encorafenib 0.039 | [3] 0.12 | alisertib -0.129 | [4] -0.022 | gefitinib -0.024

SKAP2 (UniProt O75563)
inactive: alvocidib 0.056 | Tubastatin A 0.056 | [1] 0 | defactinib 0.044 | [2] -0.01 | encorafenib 0.049 | [3] 0.008 | alisertib -0.02 | [4] 0.028 | gefitinib 0.005

SERINC3 (UniProt Q13530)
inactive: alvocidib -0.074 | Tubastatin A -0.008 | [1] 0.057 | defactinib -0.091 | [2] 0.065 | encorafenib 0.023 | [3] -0.109 | alisertib -0.047 | [4] 0.055 | gefitinib 0.014

SLC1A5 (UniProt Q15758)
inactive: alvocidib -0.049 | Tubastatin A 0.039 | [1] -0.022 | defactinib -0.021 | [2] 0.047 | encorafenib 0.007 | [3] -0.016 | alisertib 0.019 | [4] 0.019 | gefitinib -0.005

SERPINC1 (UniProt P01008)
inactive: alvocidib 0.011 | Tubastatin A 0.129 | [1] 0.047 | defactinib -0.027 | [2] -0.011 | encorafenib -0.179 | [3] 0.029 | alisertib -0.151 | [4] 0.161 | gefitinib -0.142

SFN (UniProt P31947)
inactive: alvocidib 0.05 | Tubastatin A 0.054 | [1] -0.009 | defactinib 0.052 | [2] -0.017 | encorafenib -0.024 | [3] 0.065 | alisertib 0.076 | [4] 0.008 | gefitinib -0.008

SH3BGRL (UniProt O75368)
inactive: alvocidib 0.035 | Tubastatin A 0.071 | [1] 0.007 | defactinib 0.065 | [2] 0.024 | encorafenib 0.044 | [3] -0.028 | alisertib -0.009 | [4] -0.01 | gefitinib -0.001

SIRT2 (UniProt Q8IXJ6)
inactive: alvocidib -0.041 | Tubastatin A 0.017 | [1] 0.032 | defactinib -0.028 | [2] 0.017 | encorafenib 0.069 | [3] 0.003 | alisertib -0.021 | [4] -0.046 | gefitinib 0.057

Reprinted from above (two entries):
SLC1A5 (UniProt Q15758)
inactive: alvocidib -0.049 | Tubastatin A 0.039 | [1] -0.022 | defactinib -0.021 | [2] 0.047 | encorafenib 0.007 | [3] -0.016 | alisertib 0.019 | [4] 0.019 | gefitinib -0.005

SERPINC1 (UniProt P01008)
inactive: alvocidib 0.011 | Tubastatin A 0.129 | [1] 0.047 | defactinib -0.027 | [2] -0.011 | encorafenib -0.179 | [3] 0.029 | alisertib -0.151 | [4] 0.161 | gefitinib -0.142

Next results

SF3B3 (UniProt Q15393)
inactive: alvocidib -0.024 | Tubastatin A 0.019 | [1] 0.004 | defactinib -0.036 | [2] 0.013 | encorafenib -0.003 | [3] 0.064 | alisertib -0.01 | [4] 0.038 | gefitinib -0.007
